For the series, the system named is HepG2 cell line. The experiment in a line: MTT cytotoxicity assay, HepG2. The series is classed as cell-based, human. Particulars: IC50 liver mesenchymal stem cells divided by IC50 HepG2. The procedure: The HepG2 cell line was obtained from ATCC (Rockville, MD). Liver mesenchymal stem cells were harvested from liver biopsy according to previously published protocols.[34] Cells were grown in DMEM media with 10% fetal bovine serum (FBS), 100 U per mL penicillin, and […] streptomycin at 37 °C, 5% CO2. The MTT assay kit, which relies on succinate dehydrogenase in living cells' mitochondria to convert the 3-(4,5-dimethylthiazol-2-yl)-2,5-diphenyltetrazolium bromide (MTT) dye to violet formazan crystals, was used to calculate the vitality of individual cells. 6000 cells per well were seeded in the 96-well plate containing, which were then incubated for 24 h. Different concentrations of drug were dissolved in DMEM and then added to the wells to replace the culture medium. The medium was discarded after incubation for 24 h under the same conditions, and 100 μL of MTT (2 mg mL^−1) were added. After 3 h of incubation at 37 °C, the generated formazan crystals generated were dissolved in 50 μL of DMSO. The optical density was then measured using a Stat Fax ELISA plate reader (Romer Labs, Getzersdorf, Austria) at 570 nm with a reference wavelength of 630 nm after incubating the plate at 37 °C for 15 min. As a positive control, the tyrosine kinase inhibitor sorafenib (Bayer, Germany) was employed. DMSO was used as a solvent and its final concentration was less than 0.2%. SI and IC50 were calculated. Triplicates of each in vitro test were performed.[33]
On the technique in general: Formazan colour is commonly taken as a measure of viable cells.

Molecule `O=C1CCC(=O)N1N=C(C1CC1)C1CC1` [Compound 16] displayed an SI of 3.2.

`O=C1C(=O)c2ccccc2C2=C1NNC(C1CC1)(C1CC1)O2` [Compound 13] returned an SI of 1.38.

`NC1=NNC(c2ccccc2O)N1/N=C\c1ccccc1O` (stereo not shown) [Compound 8a] yielded an SI of 1.6.

Consider `NC1=CC(=O)NNC1(C1CC1)C1CC1` [Compound 18], for which the SI stood at 1.11.

The molecule `CNC(=O)c1cc(Oc2ccc(NC(=O)Nc3ccc(Cl)c(C(F)(F)F)c3)cc2)ccn1` [Sorafenib, reference compound] yielded an SI of 3.9.

For the molecule `O=C1Nc2ccccc2/C1=N/N=C(C1CC1)C1CC1` [Compound 4, 3-(dicyclopropylmethylene)hydrazone indolin-2-one], the SI is 1.86.

With `Cc1nc2ccccc2c(=O)n1NC(=S)N=C(C1CC1)C1CC1` [Compound 20], the SI was 1.26.
